Structures can show the parent of a compound that is named as a salt. Some of the results follow. Single values are uncertain, as repeats are few or missing.

In the assay the test system is Geomyces destructans. Nature of the assay: growth inhibition relative to DMSO control; higher = stronger growth inhibition. The note with it: 10 µM; 15 °C; incubation time 10 days.
For the compound `C[C@H](CCC(=O)O)[C@H]1CC[C@H]2[C@@H]3CC[C@@H]4C[C@H](O)CC[C@]4(C)[C@H]3C[C@H](O)[C@]12C`, the growth inhibition is -6.96%. On to `NC1=NCCN1CC(=O)O`, for which the growth inhibition is -16.8%. To `CC1(C)O[C@@H]2C[C@H]3[C@@H]4CCC5=CC(=O)C=C[C@]5(C)[C@@]4(F)[C@@H](O)C[C@]3(C)[C@]2(C(=O)CO)O1` belongs -15.7%. For `Cc1cnc(NC(=O)C2=C(O)c3ccccc3S(=O)(=O)N2C)s1`, the growth inhibition was -10.6%. Consider `C[C@@H]1C[C@H]2[C@@H]3CCC4=CC(=O)C=C[C@]4(C)[C@@]3(F)[C@@H](O)C[C@]2(C)[C@@]1(O)C(=O)CO`, for which the growth inhibition is -8.87%.

On to `Cc1nnc(NS(=O)(=O)c2ccc(N)cc2)s1`, for which the growth inhibition is -14.2%. For `CC1CC(OC(=O)C(O)c2ccccc2)CC(C)(C)N1C` (stereo unspecified), the growth inhibition was 4.52%. As for `OC[C@H]1O[C@@H](n2cnc3c(NCc4ccco4)ncnc32)[C@H](O)[C@@H]1O`, the growth inhibition was -15.7%. To `CC(=O)OCC(OC(C)=O)C(OC(C)=O)C(OC(C)=O)C(OC(C)=O)C(COC(C)=O)OC(C)=O` (stereo unspecified) belongs 3.07%. To `C1CCN2C[C@@H]3C[C@@H](CN4CCCC[C@@H]34)[C@H]2C1` belongs -10.4%.

Consider `CC(C(=O)O)c1ccc(N2Cc3ccccc3C2=O)cc1` (stereo unspecified), for which the growth inhibition was determined as 1.16%. As for `CO[C@@]12[C@H](COC(N)=O)C3=C(C(=O)C(C)=C(N)C3=O)N1C[C@@H]1N[C@@H]12`, the growth inhibition is -25.4%. To `Cc1ccc(Cl)c(Nc2ccccc2C(=O)O)c1Cl` belongs 2.38%. `C[C@H]1C[C@H]2[C@@H]3CCC4=CC(=O)C=C[C@]4(C)[C@@]3(F)[C@@H](O)C[C@]2(C)[C@@]1(O)C(=O)CO`: the growth inhibition was -18.3%.

Consider `CC(C)C1=CC2=CC[C@@H]3[C@](C)(CCC[C@@]3(C)C(=O)O)[C@H]2CC1`, for which the growth inhibition was -15.3%.

For `CC1(C)C(=O)C=C[C@@]2(C)C1CC(=O)[C@@]1(C)C3=CC(=O)O[C@@H](c4ccoc4)[C@]3(C)CCC12` (stereo partly specified), the growth inhibition is -7.91%.

For `O=C(O[C@@H]1Cc2c(O)cc(O)cc2O[C@@H]1c1cc(O)c(=O)c2c(O)c(O)cc([C@H]3Oc4cc(O)cc(O)c4C[C@H]3O)c2c1)c1cc(O)c(O)c(O)c1`, the growth inhibition was -5.74%. To `C[C@@H]1O[C@@H](O[C@H]2[C@H](O[C@H]3CC[C@@]4(C)[C@@H](CC[C@]5(C)[C@@H]4CC=C4[C@@H]6CC(C)(C)CC[C@]6(C(=O)O[C@@H]6O[C@H](CO[C@@H]7O[C@H](CO)[C@@H](O[C@@H]8O[C@@H](C)[C@H](O)[C@@H](O)[C@H]8O)[C@H](O)[C@H]7O)[C@@H](O)[C@H](O)[C@H]6O)CC[C@]45C)[C@]3(C)CO)OC[C@H](O)[C@@H]2O)[C@H](O)[C@H](O)[C@H]1O` belongs -3.77%; to `CCOC(=O)CCCCCCCCCCCCC1C=CCC1` (stereo unspecified), -8.59%; to `CCn1nc(C(=O)O)c(=O)c2cc3c(cc21)OCO3`, -1.52%. To `Cc1cc(/C=C/c2ccc3cc(N(C)C)ccc3[n+]2C)c(C)n1-c1ccccc1` belongs -22.8%; to `CC(=O)OCC1(C)CCC2(C)CCC3(C)C4=CCc5c(cc(OC(C)=O)c(OC(C)=O)c5C)C4(C)CCC3(C)C2C1` (stereo unspecified), -4.61%. On to `Cc1c(Cl)cccc1Nc1ccccc1C(=O)O`, for which the growth inhibition was -1.58%.

Take `CCCSc1ccc2[nH]c(NC(=O)OC)nc2c1`: the growth inhibition was -2.21%. To `C[C@@H]1CC[C@H]2C(C)(C)[C@H]3C[C@@]12CC[C@@]3(C)O` belongs -4.62%; to `CC(=O)C1=C(O)C=C2Oc3c(C(C)=O)c(O)c(C)c(O)c3C2(C)C1=O` (stereo in doubt), -41.4%. To `CCc1ccc(CCOc2ccc(CC3SC(=O)NC3=O)cc2)nc1` (stereo unspecified) belongs -26.2%.

For the compound `Clc1ccc2c(c1)C(N1CCNCC1)=Nc1ccccc1O2`, the growth inhibition was -0.774%. As to `CC(C)[C@@H](C)/C=C/[C@@H](C)[C@H]1CC[C@H]2C3=CC=C4C[C@@H](O)CC[C@]4(C)[C@H]3CC[C@]12C`, the growth inhibition stood at 6.63%. To `O=C1c2ccccc2C(=O)C1c1ccccc1` belongs -30.6%. For `c1ccc(CC2=NCCN2)cc1`, the growth inhibition was -11.7%.

Regarding `COc1c(O)cc2occ(-c3ccc(O)cc3)c(=O)c2c1O`, the growth inhibition is -0.794%.

For `NCCCCC(=O)O`, the growth inhibition is -7.31%. To `OCCN1CCN(CCCN2c3ccccc3Sc3ccc(C(F)(F)F)cc32)CC1` belongs -5.9%; to `CC(C)(Oc1ccc(CCNC(=O)c2ccc(Cl)cc2)cc1)C(=O)O`, -11.5%; to `CC1=CC(=O)[C@H]2C(C)(C)CCC[C@]2(C)[C@@]1(O)CCc1ccoc1`, 1.81%. To `COc1cc(/C=C/C=O)cc(OC)c1OC` belongs -6.87%.

Regarding `CC1=C(/C=C/C(C)=C/C=C/C(C)=C/C=C/C=C(C)/C=C/C=C(C)/C=C/C2=C(C)CCCC2(C)C)C(C)(C)CCC1` [beta-CAROTENE], the growth inhibition was -7.82%.

With `CC[C@H]1OC(=O)[C@H](C)[C@@H](O[C@H]2C[C@@](C)(OC)[C@@H](O)[C@H](C)O2)[C@H](C)[C@@H](O[C@@H]2O[C@H](C)C[C@H](N(C)C)[C@H]2O)[C@](C)(O)C[C@@H](C)C(=O)[C@H](C)[C@@H](O)[C@]1(C)O`, the growth inhibition is -18.1%. Consider `CCOC(=O)N1CCC(=C2c3ccc(Cl)cc3CCc3cccnc32)CC1`, for which the growth inhibition stood at 11.6%. To `COc1cc(O)c2c(=O)cc(-c3ccc(OC)c(-c4c(O)cc(O)c5c(=O)cc(-c6ccc(O)cc6)oc45)c3)oc2c1` [GINKGETIN, K salt] belongs -19.2%; to `NC(=O)c1ccccc1O`, -23.7%. In the case of `COc1ccc(-c2coc3cc(O)ccc3c2=O)cc1`, the growth inhibition was found to be 2.99%. To `Oc1c(Br)cc(Br)c2cccnc12` belongs -10.9%; to `CCC(=O)O[C@H]1CC[C@H]2[C@@H]3CCc4cc(O)ccc4[C@H]3CC[C@]12C`, -13.6%; to `CN(C)[C@@H]1C(O)=C(C(N)=O)C(=O)[C@@]2(O)C(O)=C3C(=O)c4c(O)cccc4[C@@](C)(O)[C@H]3C[C@@H]12`, -18.3%. To `CC(=O)O[C@H]1CC[C@]2(C)C(C[C@H](OC(C)=O)[C@]3(C)C4=CC(=O)OC(c5ccoc5)[C@@]4(C)CCC23)C1(C)C` (stereo partly drawn) [3beta,7beta-DIACETOXYDEOXODEACETOXYDEOXYDIHYDROGEDUNIN] belongs -11.4%; to `COC(=O)[C@H](c1ccccc1Cl)N1CCc2sccc2C1`, -10.8%; to `C[C@]12CCC(=O)C=C1CC[C@@H]1[C@@H]2C(=O)C[C@@]2(C)[C@H]1CC[C@]2(O)C(=O)CO`, -4.29%. To `Nc1ccc(S(=O)(=O)NC(=O)c2ccccc2)cc1` belongs -30.1%. For the compound `CC(C)c1nc(N(C)S(C)(=O)=O)nc(-c2ccc(F)cc2)c1/C=C/[C@@H](O)C[C@@H](O)CC(=O)O`, the growth inhibition is -8.18%. To `C=C(CC)C(=O)c1ccc(OCC(=O)O)c(Cl)c1Cl` belongs 29.7%; to `CCCCCC1C(=O)CCC1CC(=O)OC` (stereo unspecified), 5.6%. To `COc1ccc2c(c1)[C@@]1(C)CCC(=O)C[C@H]1CC2` [5beta-12-METHOXY-4,4-BISNOR-8,11,13-PODOCARPATRIEN-3-ONE] belongs -7.59%. In the case of `CCN(CC)CCCC(C)Nc1ccnc2cc(Cl)ccc12` (stereo unspecified), the growth inhibition is 0.521%.

For the compound `O=c1cc(-c2ccc(O)cc2)oc2cc(O[C@@H]3O[C@H](CO)[C@@H](O)[C@H](O)[C@H]3O[C@@H]3OC[C@](O)(CO)[C@H]3O)cc(O)c12`, the growth inhibition is -0.071%. To `c1ccc2c(c1)CCCC2C1=NCCN1` (stereo unspecified) belongs -12.6%; to `O=C(/C=C(\O)c1ccccc1)c1ccccc1O` [2',beta-DIHYDROXYCHALCONE], 2.91%; to `C1N2CN3CN1CN(C2)C3`, -7.83%. In the case of `O=C(O)C1=C[C@@H](O)[C@@H](O)[C@H](O)C1`, the growth inhibition is -2.63%. To `C=C(C)[C@@H]1CC[C@]2(C(=O)O)CC[C@]3(C)[C@H](CC[C@@H]4[C@@]5(C)CC[C@H](O)C(C)(C)[C@@H]5CC[C@]43C)[C@@H]12` belongs -8.08%; to `Oc1ccc2c(c1)OC[C@]1(O)Cc3cc(O)c(O)cc3[C@H]21`, 9.31%; to `CCn1cc(C(=O)O)c(=O)c2cc(F)c(N3CCNCC3)nc21`, 0.305%.

For the compound `C=CCc1ccc(O)c(OC)c1`, the growth inhibition was -9.7%. On to `O=C1OC(c2ccc(O)cc2)(c2ccc(O)cc2)c2ccccc21`, for which the growth inhibition is -0.89%.

Regarding `COc1ccc2c(C)cc(=O)oc2c1`, the growth inhibition was -8.66%. For the compound `COC(=O)C[C@H]1C(C)(C)[C@@H](O)[C@@H]2CC3=C4C=C(OC)O[C@@H](c5ccoc5)[C@]4(C)CCC3[C@@]1(C)C2=O` (stereo partly drawn) [3-DEOXO-3beta-HYDROXYMEXICANOLIDE 16-ENOL ETHER], the growth inhibition was -3.64%. For the compound `CC(=O)N[C@@H](Cc1c[nH]c2ccccc12)C(=O)O`, the growth inhibition is -30.8%.

With `COc1ccccc1-c1coc2cc(O)ccc2c1=O`, the growth inhibition was -13.3%. `CC(C(=O)O)c1cccc(Oc2ccccc2)c1` (stereo unspecified): the growth inhibition is -16.7%. To `O=C(O)CN(CCN(CC(=O)O)CC(=O)O)CC(=O)O.[Na+].[Na+].[Na+]` belongs -4.82%; to `C=CC(C)(O)CCC=C(C)CCC=C(C)C` (mixture of isomers), -1.95%; to `CCCc1ncc(C[n+]2ccccc2C)c(N)n1`, -40.3%. To `Nc1[nH]cnc2ncnc1-2` belongs 0.397%. To `CC(=O)[C@@]1(O)CC[C@H]2[C@@H]3C=C(Cl)C4=CC(=O)[C@@H]5C[C@@H]5[C@]4(C)[C@H]3CC[C@@]21C` belongs 4.68%; to `CC[N+](C)(C)c1cccc(O)c1`, -10.9%; to `NCCc1c[nH]cn1`, -0.831%. Turning to `OC(Cn1cncn1)(Cn1cncn1)c1ccc(F)cc1F`, the growth inhibition was -10.5%. To `CC(=O)OCC(=O)[C@@]1(O)CC[C@H]2[C@@H]3CCC4=CC(=O)CC[C@]4(C)[C@H]3[C@@H](O)C[C@@]21C` belongs -0.831%; to `NS(=O)(=O)c1cc(C2(O)NC(=O)c3ccccc32)ccc1Cl` (stereo unspecified), -1.52%. To `COc1ccc(-c2cc(=O)c3c(O)c(OC)c(OC)cc3o2)cc1O` belongs 16.1%; to `CCCCCCCCCCCCCCCC(=O)OC/C=C(C)/C=C/C=C(C)/C=C/C1=C(C)CCCC1(C)C`, -13.3%; to `CC(=O)OCC(=O)[C@@]1(O)CC[C@H]2[C@@H]3CCC4=CC(=O)CC[C@]4(C)[C@@]3(F)[C@@H](O)C[C@@]21C`, 3.91%. To `O=C(O)CCCCCCCC(=O)O` belongs -19.8%; to `CC(=O)O[C@@H]1C[C@H]2C(C)(C)C(=O)CC[C@]2(C)[C@H]2CC[C@@]3(C)[C@H](c4ccoc4)OC(=O)[C@H]4O[C@]43[C@@]21C`, -16.6%. For the compound `CC12CCC3C(CC3(C)C)C(C)(CCC1=O)O2` (stereo unspecified), the growth inhibition was -16.3%.

These data come from the supplement of paper PMC3047530.
